For assay [1], the target named is T1, Lem2 fused to green fluorescent protein (Lem2-GFP), expressed from the endogenous locus (S. pombe), Q10109.
T1 chain: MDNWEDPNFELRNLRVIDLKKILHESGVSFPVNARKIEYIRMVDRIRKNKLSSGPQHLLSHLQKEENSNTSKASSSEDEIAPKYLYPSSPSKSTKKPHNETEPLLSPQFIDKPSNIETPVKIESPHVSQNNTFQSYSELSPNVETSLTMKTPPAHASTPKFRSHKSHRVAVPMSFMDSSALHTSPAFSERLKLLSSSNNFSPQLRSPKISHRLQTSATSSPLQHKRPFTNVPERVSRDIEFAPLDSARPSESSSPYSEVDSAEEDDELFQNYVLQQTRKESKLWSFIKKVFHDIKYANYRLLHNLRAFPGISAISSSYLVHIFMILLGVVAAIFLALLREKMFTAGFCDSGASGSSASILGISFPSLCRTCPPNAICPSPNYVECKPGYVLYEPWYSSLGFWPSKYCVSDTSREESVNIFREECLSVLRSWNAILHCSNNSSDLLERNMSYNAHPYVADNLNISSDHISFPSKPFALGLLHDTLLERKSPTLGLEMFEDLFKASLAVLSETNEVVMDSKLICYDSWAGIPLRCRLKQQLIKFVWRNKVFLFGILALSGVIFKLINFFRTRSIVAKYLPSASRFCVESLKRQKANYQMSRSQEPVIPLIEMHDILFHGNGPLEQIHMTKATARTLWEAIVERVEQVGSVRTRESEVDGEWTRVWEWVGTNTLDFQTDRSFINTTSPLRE
The assay is described as follows: co-IP; S. pombe lysates, proteins expressed from their endogenous loci; GFP-Trap, 1.5 hours at 4 °C; lysis buffer 50 mM HEPES pH 7.4, 100 mM NaCl, 10% glycerol, 1 mM EDTA, 2.5 mM MgCl2, 0.5% NP-40; bound material untreated or treated with RNase or benzonase (Lem2-GFP); WT or lem2∆ background (GFP-Mmi1); immunoblot. To be noted: remark: other sources report otherwise. (In general: Immunoblotting shows a protein as a band on a membrane.)

The target of assay [2] is T2, GFP-Mmi1, expressed from the endogenous locus (S. pombe) (UniProt O74958).
T2 sequence: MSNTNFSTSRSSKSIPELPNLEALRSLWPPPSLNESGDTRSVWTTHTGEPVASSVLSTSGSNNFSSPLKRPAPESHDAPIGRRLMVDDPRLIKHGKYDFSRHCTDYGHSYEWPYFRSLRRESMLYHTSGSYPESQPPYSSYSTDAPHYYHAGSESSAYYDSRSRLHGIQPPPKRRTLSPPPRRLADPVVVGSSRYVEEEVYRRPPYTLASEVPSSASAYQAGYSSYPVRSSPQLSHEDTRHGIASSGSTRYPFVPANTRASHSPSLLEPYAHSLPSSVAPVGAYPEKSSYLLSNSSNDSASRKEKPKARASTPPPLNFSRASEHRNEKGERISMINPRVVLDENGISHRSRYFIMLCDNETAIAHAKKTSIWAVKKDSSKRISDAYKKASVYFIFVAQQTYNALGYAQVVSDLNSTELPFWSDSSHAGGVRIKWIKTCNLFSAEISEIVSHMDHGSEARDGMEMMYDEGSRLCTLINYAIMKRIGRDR
Described as above.

Results are given in words; binding and its absence hold for the method and conditions named. Binding seen in cells or lysates may run through a third protein. Some results given as binding are weak or reduced against the parent protein; the word gives no strength. Sequences can lack the tags named with a protein.

B1: Red1 tagged with 6 copies of the hemagglutinin epitope (Red1-6xHA), expressed from the endogenous locus, Q9UTR8 1-712 (protein)
chain: MSRSINLDELRKKALESKKKNEEDESNDSDKEDGEISEDDPVIDQSNSVPPMKVPTFPEQIPQLPPFDRFPGTNANFFPFGAPFMLPPALMFGPNTVPFFPQTASSNKTFSKRKRSSENSFNNRNKAKSSETSDSSNTSQSFKENRALKDTATSRPLALSSDTSYQKSEKAKSEKSPFLSTSKNSDANYSKTTNQKEAEKAVSQLFEVGVRFNDFIAEGIEPSVVHTLFLKLGLDSSSASSQGSLTLSADKAARSAKLRKIDSNLSDTHILPGDNGTPTVLPERKNLISLPLLKQDDWLSSSKPFGSSTPNVVIEFDSDDDGDDFSNSKIEQSNLEKPPSNSENGLTMSRSDYLALLRNKEEEIRRMTKLILRLESNKKPYRSPTSAADMKLPSVPVAAVDNKSKTHLDTFEKVVDLSSKADFVEAGPSISSSGASSSAATTNSDTTEQILEAPWLRKTEQIAVVHEEHPAQIKKSEIDILNNLIEKEEGELTKYQTLVKSKTEILTQLYTRKKQLLEQQGKGNVACLPKESDLSMDSITEVSAQADENSSQILSSKTSNAPNGTTETDFEDKVPLVDYISPFYRFKSYRFNQQFVERVPLKYRSLTYSNKIEPMKVFCKYETTGGVCNDDHCEASHFRDIKMTDDEIIQDLSRYIEGNDEIEKESYKSGLDIVMKNTDENTDFVDVATRIVEYHNLWKSERMTIPVAKVSI
In the case of B1, the binding result in assay [1] is “binds”.

B2: Red1 tagged with 6 copies of the hemagglutinin epitope (Red1-6xHA), expressed from the endogenous locus (protein, UniProt Q9UTR8 1-712)
chain: B1 chain
In the case of B2, the binding entry in assay [2] is “binds”.

The values are drawn from article PMC9507967.
